In PubChem BioAssay AID298 (DTP/NCI, 2004) one finds T/C data, which are given here for one compound.

The assay concerns MX-1 breast xenograft, intrarenal, nude mice, tumor weight. In words: NCI In Vivo Anticancer Drug Screen. Data for tumor model Human Mammary Carcinoma MX-1 Xenograft (intrarenal inoculation) in NU/NU BALB/C (nude) mice. Conditions: T/C endpoint: mean tumor weight change, schedule: Q04DX003 (ip), vehicle: saline, evaluated on day 11, higher T/C = larger tumour. How it is done: The antitumor activity of compounds was measured in mice bearing transplantable tumors. Survival or tumor size were measured and the results are expressed as the measurement made in the treated group (T) divided by the measurement made in the vehicle treated control group (C). The tumor model used in this assay is Human Mammary Carcinoma MX-1 Xenograft (intrarenal inoculation) in NU/NU BALB/C (nude) mice

The list shows only some results of the screen, not a fair sample: it gathers some chemical classes. Not every dose and run of a compound is shown. T/C: endpoint of the treated group in % of that of the vehicle group. Schedule codes are those of the source, taken here to give the interval after Q, in days (D) or hours (H), and the number of doses after X.

With `CN(CCCl)CCCl`, the T/C (dose: 0.38 mg/kg/injection) was 12 % of control, the T/C (dose: 0.75 mg/kg/injection) was 7 % of control and the T/C (dose: 1.25 mg/kg/injection) is 1 % of control.
